# From patent US8729047B2, “Compositions for inhibiting redox-sensitive GTPases” (Board of Regents, The University of Texas System, priority 2010, dated 2014)
# Some entries share one result that the patent states for a list of compounds. At least one compound was matched to its structure with a doubt left.
# Assays:
# HME-RhoC cells = test: Matrigel invasion (cell motility) assay; format: cell-based, human
# Procedure: FIG. 5. Determination of cell invasiveness in the presence and absence of 6-thiopurine and/or a redox agent. The top chamber of a Transwell filter (6.5 mm with 8 μm pores, Costar; Corning, N.Y.) was coated with a 10 μL aliquot of 10 mg/mL Matrigel (BD Biosciences, Bedford Mass.), and the lower chamber of the Transwell was filled with either serum-free or serum-containing media. Sample cells (e.g., 6-TG-resistant HME-RhoC cells) were prepared to resuspend cells in a serum-free medium with 0.1% BSA at a concentration of 4×10^5 cells/mL. At this point, neither 6-thiopurine nor GSNO were added to the cells. The sample cells (0.5 mL) were added to the top chamber of a Transwell filter and were incubated for 24 h at 37° C. in a 10% CO2 incubator. The Transwell filters were fixed with methanol, stained with H&E, and cells in the serum-containing samples were counted. The number of cells that had invaded the serum-free medium-containing lower chambers was used as a control background. […]
# The top chamber of a Transwell filter (6.5 mm with 8 μm pores, Costar; Corning, N.Y.) was coated with a 10 μL aliquot of 10 mg/mL Matrigel, and the lower chamber of the Transwell was filled with either serum-free or serum-containing media. […] The Transwell filters were fixed with methanol, stained with haematoxylin and eosin, and cells in the serum-containing samples were counted. […]
# SUM149 cells = test: Matrigel invasion (cell motility) assay; format: cell-based, human; conditions: NO donor alone; after 10 h slightly below original level
# Source text: FIG. 14. Determination of cell invasiveness in the presence and absence of thiopurines and/or redox agents. […] Western blot analysis representing the total expression of RhoC in these cells also is shown. (B) Experimental procedures for the determination of the time-dependent motility of cells using the QCM Cell Invasion Assay kit in the presence and absence of 6-TG and DETA/NO are described elsewhere herein.
# The top chamber of a Transwell filter (6.5 mm with 8 μm pores, Costar; Corning, N.Y.) was coated with a 10 μL aliquot of 10 mg/mL Matrigel, and the lower chamber of the Transwell was filled with either serum-free or serum-containing media. Sample cells were prepared to resuspend cells in a serum-free medium with 0.1% BSA at a concentration of 4×10^5 cells/mL. […] The Transwell filters were fixed with methanol, stained with haematoxylin and eosin, and cells in the serum-containing samples were counted. The number of cells that had invaded the serum-free, medium-containing lower chambers was used as a control background.
structure (smiles),measurement,setting,value
"NCCN(CCN)/[N+]([O-])=N/O [DETA/NO, diethylenetriamine nitric oxide adduct]",retained invasiveness (of original) of 6-TG-resistant HME-RhoC cells,"HME-RhoC cells; 6-TG-resistant cells further treated with NO donor 10 μM, FIG. 5",less than 5%
same,initial increase of motility within 5 h,"HME-RhoC cells; NO donor alone, after 10 h slightly below original level",10-30%
same,initial increase of motility within 5 h,SUM149 cells,10-30%
